Part of at least one peptide drawing is inferred or uncertain, most often the ends.
Tests used:
[1] = Octanol-water partition coefficient; assay type: physicochemical; settings: PBS/octanol
[2] = system: nude BALB/c mice with s.c. AR42J tumors; assay: Biodistribution of labeled IMP466; assay type: in vivo; settings: 2 h p.i.

| SMILES | log Poctanol/water [1] | Lung uptake [2] | kidney retention [2] | Tumor uptake [2] |
| --- | --- | --- | --- | --- |
| C[C@@H](O)[C@@H]1NC(=O)[C@H](CCCCN)NC(=O)[C@@H](Cc2c[nH]c3ccccc23)NC(=O)[C@H](Cc2ccccc2)NC(=O)[C@@H](NC(=O)[C@@H](Cc2ccccc2)NC(=O)CN2CCN(CC(=O)O)CCN(CC(=O)O)CC2)CSSC[C@@H](C(=O)N[C@H](CO)[C@@H](C)O)NC1=O [Al^18F(IMP466)] | −2.44±0.12 | 1.9±0.4 % ID/g | 9.96±1.27 % ID/g | – |
| C[C@@H](O)[C@@H]1NC(=O)[C@H](CCCCN)NC(=O)[C@@H](Cc2c[nH]c3ccccc23)NC(=O)[C@H](Cc2ccccc2)NC(=O)[C@@H](NC(=O)[C@@H](Cc2ccccc2)NC(=O)CN2CCN(CC(=O)O)CCN(CC(=O)O)CC2)CSSC[C@@H](C(=O)N[C@H](CO)[C@@H](C)O)NC1=O [^68Ga(IMP466), metal not drawn] | −3.79±0.07 | 4.0±0.9 % ID/g | – | 29.2±0.5 % ID/g |

Source: US20160199524A1, “RADIOSENSITIVITY OF FLUOROPHORES AND USE OF RADIOPROTECTIVE AGENTS FOR DUAL-MODALITY IMAGING” (Immunomedics, Inc., priority 2015, published 2016)
